Assay results from PMC3608601.
These are yes or no findings as the source states them, for the method shown. Some binding calls cover weakened binding; strength is not graded here.

The chains behind the UniProt entries cited, without tags or fusion partners. Residues count along the entry.
UniProt P29994, residues 1-223: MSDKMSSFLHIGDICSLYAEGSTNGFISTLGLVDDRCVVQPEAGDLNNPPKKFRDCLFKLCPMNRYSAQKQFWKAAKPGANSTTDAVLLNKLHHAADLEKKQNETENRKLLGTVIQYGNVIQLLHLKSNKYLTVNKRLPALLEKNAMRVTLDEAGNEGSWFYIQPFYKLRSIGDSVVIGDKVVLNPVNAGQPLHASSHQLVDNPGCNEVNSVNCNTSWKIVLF

Target: suppressor domain (SD, residues 1-223) of type 1 inositol 1,4,5-trisphosphate receptor, biotinylated (rat) (UniProt P29994)
Assay: bead aggregation assay; biotinylated protein (20 pmol) immobilised on streptavidin-coated magnetic beads (10 pmol binding sites), TEM (50 mM Tris-HCl, 1 mM EDTA, pH 8.3), 22°C, 30 min; aggregation of beads counted in DIC images (aggregation ratio); NT-beads also with 10 µM IP3, no significant effect; both purified

Q: For “suppressor domain (SD, residues 1-223) of type 1 inositol 1,4,5-trisphosphate receptor, biotinylated (from UniProt P29994 1-223) (domain or fragment)”, which binding is on record?
A: binds weakly
